No constants are given. Whether binding was seen depends on the method and setting.
Legend:
[1] = target: T1, recombinant C-terminal Fbln7 fragment (Fbln7-C) (mouse) (UniProt Q501P1); experiment: ELISA; solid phase binding assay; 96-well dish coated with protein (1 μg/well) overnight at 4 °C; second protein in PBS (VEGF 500 pg/well, VEGFR1 and VEGFR2 10 ng/well) added for 3 hours; second protein detected by primary antibody and HRP-conjugated secondary antibody; both purified
T1 sequence: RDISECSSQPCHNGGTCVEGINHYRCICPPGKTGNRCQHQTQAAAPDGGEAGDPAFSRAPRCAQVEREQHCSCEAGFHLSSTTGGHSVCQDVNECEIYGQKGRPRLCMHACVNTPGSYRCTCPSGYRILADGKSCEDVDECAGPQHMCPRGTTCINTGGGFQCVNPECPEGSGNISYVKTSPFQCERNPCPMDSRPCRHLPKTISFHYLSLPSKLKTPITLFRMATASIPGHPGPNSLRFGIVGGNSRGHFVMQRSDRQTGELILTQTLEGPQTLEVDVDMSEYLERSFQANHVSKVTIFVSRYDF

[2] = target: T2, recombinant full-length Fbln7 (Fbln7-FL) (mouse) (UniProt Q501P1); experiment: as above
T2 sequence: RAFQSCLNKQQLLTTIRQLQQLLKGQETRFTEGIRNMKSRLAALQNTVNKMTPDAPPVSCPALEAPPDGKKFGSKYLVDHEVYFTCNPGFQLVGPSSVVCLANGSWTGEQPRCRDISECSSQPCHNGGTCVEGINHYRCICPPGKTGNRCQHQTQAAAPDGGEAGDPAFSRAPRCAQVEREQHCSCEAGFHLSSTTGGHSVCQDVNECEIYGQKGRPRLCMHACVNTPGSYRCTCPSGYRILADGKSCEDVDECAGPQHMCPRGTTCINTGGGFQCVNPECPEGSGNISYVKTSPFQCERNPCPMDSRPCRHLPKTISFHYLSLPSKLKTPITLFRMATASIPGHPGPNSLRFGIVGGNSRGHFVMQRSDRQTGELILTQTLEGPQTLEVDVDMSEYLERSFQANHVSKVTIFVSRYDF

Recombinant vascular endothelial growth factor (VEGF) 164 (ligand)
binding [1]: no binding (tested: 500 pg/well) | binding [2]: no binding (tested: 500 pg/well)
